# Experimental data from the supplement of paper PMC4604168 (melanoma cell lines).
# Some of the results follow. Many values rest on one well or one pass, so single values are uncertain.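 Cells were imaged in 1,536-well plates, and nuclei stained with an antibody against cleaved PARP were counted against all DNA-stained nuclei to give the apoptosis fraction. Screening doses were chosen to leave most cells alive, and resting and induced cleaved-PARP levels differ strongly between cell lines.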
# Legend:
# Experiment in all cases: cleaved PARP positive nuclei fraction relative to DMSO control; melanoma cells; higher = more apoptosis
# Settings in all cases: library dose: low library concentration; 72 h
# [1] = system: 501Mel
# [2] = system: A101D
# [3] = system: A2058
# [4] = system: A375
# [5] = system: C32
# [6] = system: CBRC008 (line from a melanoma biopsy)
# [7] = system: CBRC013 (line from a melanoma biopsy)
# [8] = system: CBRC014 (line from a melanoma biopsy)
# [9] = system: CBRC016 (line from a melanoma biopsy)
# [10] = system: CBRC017 (line from a melanoma biopsy)
# [11] = system: COLO792
# [12] = system: COLO800
# [13] = system: COLO829
# [14] = system: G361
# [15] = system: IPC-298
# [16] = system: IST-MEL1
# [17] = system: LB2518-MEL
# [18] = system: LOXIMVI
# [19] = system: MEL-HO
Compound,cleaved PARP positive nuclei fraction [1],cleaved PARP positive nuclei fraction [2],cleaved PARP positive nuclei fraction [3],cleaved PARP positive nuclei fraction [4],cleaved PARP positive nuclei fraction [5],cleaved PARP positive nuclei fraction [6],cleaved PARP positive nuclei fraction [7],cleaved PARP positive nuclei fraction [8],cleaved PARP positive nuclei fraction [9],cleaved PARP positive nuclei fraction [10],cleaved PARP positive nuclei fraction [11],cleaved PARP positive nuclei fraction [12],cleaved PARP positive nuclei fraction [13],cleaved PARP positive nuclei fraction [14],cleaved PARP positive nuclei fraction [15],cleaved PARP positive nuclei fraction [16],cleaved PARP positive nuclei fraction [17],cleaved PARP positive nuclei fraction [18],cleaved PARP positive nuclei fraction [19]
"C[C@@H](N)c1ccc(C(=O)Nc2ccnc3[nH]ccc23)cc1 + Cn1cncc1[C@@](N)(c1ccc(Cl)cc1)c1ccc2c(c1)c(-c1cccc(Cl)c1)cc(=O)n2C [tipifarnib] (first compound 0.4 µM, partner dose 0.01 µM)",84.2%,50.2%,97.3%,152%,92.8%,112%,122%,114%,155%,119%,142%,102%,74.8%,158%,21.3%,96.6%,52.6%,89.9%,101%
"CC(=O)O[C@@]12CO[C@@H]1C[C@H](O)[C@@]1(C)C(=O)[C@H](O)C3=C(C)[C@@H](OC(=O)[C@H](O)[C@@H](NC(=O)OC(C)(C)C)c4ccccc4)C[C@@](O)([C@@H](OC(=O)c4ccccc4)[C@H]21)C3(C)C [Docetaxel] + CN(NC(=O)CC(=O)NN(C)C(=S)c1ccccc1)C(=S)c1ccccc1 [STA4783] (first compound 0.0001 µM, partner dose 0.006 µM)",190%,138%,6770%,12800%,380%,1490%,161%,549%,1570%,264%,795%,365%,369%,484%,33%,159%,177%,1120%,62%
"Cn1cnc2c(F)c(Nc3ccc(Br)cc3Cl)c(C(=O)NOCCO)cc21 [selumetinib] + C=CCn1c(=O)c2cnc(Nc3ccc(N4CCN(C)CC4)cc3)nc2n1-c1cccc(C(C)(C)O)n1 [MK1775] (first compound 0.015 µM, partner dose 0.02 µM)",125%,98.6%,123%,50.3%,100%,120%,106%,85.4%,112%,116%,124%,74.2%,102%,108%,131%,102%,583%,80.5%,47.3%
"CC(=O)O[C@@]12CO[C@@H]1C[C@H](O)[C@@]1(C)C(=O)[C@H](O)C3=C(C)[C@@H](OC(=O)[C@H](O)[C@@H](NC(=O)OC(C)(C)C)c4ccccc4)C[C@@](O)([C@@H](OC(=O)c4ccccc4)[C@H]21)C3(C)C [Docetaxel] + CO[C@@H]1[C@H](N(C)C(=O)c2ccccc2)C[C@H]2O[C@]1(C)n1c3ccccc3c3c4c(c5c6ccccc6n2c5c31)C(=O)NC4 [Midostaurin] (first compound 0.0001 µM, partner dose 0.08 µM)",424%,164%,8600%,8770%,263%,308%,96.9%,181%,205%,140%,765%,351%,170%,475%,197%,202%,116%,310%,109%
"CS(=O)(=O)c1ccc(C(=O)Nc2ccc(Cl)c(-c3ccccn3)c2)c(Cl)c1 [vismodegib] + COc1cc(Nc2ncc(F)c(Nc3ccc4c(n3)NC(=O)C(C)(C)O4)n2)cc(OC)c1OC [Tamatinib] (first compound 1 µM, partner dose 0.4 µM)",92.6%,96.3%,20%,120%,134%,127%,159%,95.2%,32.4%,102%,39%,117%,103%,120%,106%,138%,107%,100%,35.2%
"COc1ccc(C2=N[C@@H](c3ccc(Cl)cc3)[C@@H](c3ccc(Cl)cc3)N2C(=O)N2CCNC(=O)C2)c(OC(C)C)c1 [Nutlin-3] + OCCn1cc(-c2cnc3nnn(Cc4ccc5ncccc5c4)c3n2)cn1 [PF04217903] (first compound 0.1 µM, partner dose 1 µM)",153%,156%,97.5%,234%,224%,51.8%,67.7%,84.1%,63%,115%,97.1%,77.4%,125%,66.8%,44%,82.8%,278%,105%,166%
"CC1(C)CCC(c2ccc(Cl)cc2)=C(CN2CCN(c3ccc(C(=O)NS(=O)(=O)c4ccc(N[C@H](CCN5CCOCC5)CSc5ccccc5)c(S(=O)(=O)C(F)(F)F)c4)cc3)CC2)C1 + CC(C)(C)c1cnc(CSc2cnc(NC(=O)C3CCNCC3)s2)o1 [SNS-032] (first compound 0.4 µM, partner dose 0.01 µM)",232%,129%,77%,106%,412%,701%,660%,271%,980%,325%,593%,128%,126%,72.3%,135%,133%,126%,80.1%,72.7%
"CC1(C)CCC(c2ccc(Cl)cc2)=C(CN2CCN(c3ccc(C(=O)NS(=O)(=O)c4ccc(N[C@H](CCN5CCOCC5)CSc5ccccc5)c(S(=O)(=O)C(F)(F)F)c4)cc3)CC2)C1 + Cc1ccc(NC(=O)c2cccc(N(C)C)c2)cc1NC(=O)c1ccc(O)cc1 [ZM336372] (first compound 0.4 µM, partner dose 2 µM)",83.3%,249%,73.6%,243%,356%,321%,91.6%,616%,302%,266%,173%,257%,52.3%,193%,117%,107%,159%,200%,61.9%
"COc1ccc(C2=N[C@@H](c3ccc(Cl)cc3)[C@@H](c3ccc(Cl)cc3)N2C(=O)N2CCNC(=O)C2)c(OC(C)C)c1 [Nutlin-3] + O=C(CCCCCCC(=O)Nc1ccccc1)NO [vorinostat] (first compound 0.1 µM, partner dose 0.08 µM)",172%,45%,137%,66.7%,42.6%,52.6%,107%,92.1%,66.2%,109%,74%,115%,96.2%,47.2%,63.7%,35.1%,129%,50.1%,226%

# Single records, from the list above. Order of values: cleaved PARP positive nuclei fraction [1]	cleaved PARP positive nuclei fraction [2]	cleaved PARP positive nuclei fraction [3]	cleaved PARP positive nuclei fraction [4]	cleaved PARP positive nuclei fraction [5]	cleaved PARP positive nuclei fraction [6]	cleaved PARP positive nuclei fraction [7]	cleaved PARP positive nuclei fraction [8]	cleaved PARP positive nuclei fraction [9]	cleaved PARP positive nuclei fraction [10]	cleaved PARP positive nuclei fraction [11]	cleaved PARP positive nuclei fraction [12]	cleaved PARP positive nuclei fraction [13]	cleaved PARP positive nuclei fraction [14]	cleaved PARP positive nuclei fraction [15]	cleaved PARP positive nuclei fraction [16]	cleaved PARP positive nuclei fraction [17]	cleaved PARP positive nuclei fraction [18]	cleaved PARP positive nuclei fraction [19]
# Cn1cnc2c(F)c(Nc3ccc(Br)cc3Cl)c(C(=O)NOCCO)cc21 [selumetinib] + C=CCn1c(=O)c2cnc(Nc3ccc(N4CCN(C)CC4)cc3)nc2n1-c1cccc(C(C)(C)O)n1 [MK1775] (first compound 0.015 µM, partner dose 0.02 µM) is listed as 125%	98.6%	123%	50.3%	100%	120%	106%	85.4%	112%	116%	124%	74.2%	102%	108%	131%	102%	583%	80.5%	47.3%
# CC(=O)O[C@@]12CO[C@@H]1C[C@H](O)[C@@]1(C)C(=O)[C@H](O)C3=C(C)[C@@H](OC(=O)[C@H](O)[C@@H](NC(=O)OC(C)(C)C)c4ccccc4)C[C@@](O)([C@@H](OC(=O)c4ccccc4)[C@H]21)C3(C)C [Docetaxel] + CO[C@@H]1[C@H](N(C)C(=O)c2ccccc2)C[C@H]2O[C@]1(C)n1c3ccccc3c3c4c(c5c6ccccc6n2c5c31)C(=O)NC4 [Midostaurin] (first compound 0.0001 µM, partner dose 0.08 µM) is listed as 424%	164%	8600%	8770%	263%	308%	96.9%	181%	205%	140%	765%	351%	170%	475%	197%	202%	116%	310%	109%
